# These are yes or no findings as the source states them, for the method shown. Binding seen in cells or lysates may run through a third protein. Some entries that bind do so weakly or less than the wild type.
# The chains behind the UniProt entries cited, without tags or fusion partners. Residues count along the entry.
# UniProt P11021, residues 19-654: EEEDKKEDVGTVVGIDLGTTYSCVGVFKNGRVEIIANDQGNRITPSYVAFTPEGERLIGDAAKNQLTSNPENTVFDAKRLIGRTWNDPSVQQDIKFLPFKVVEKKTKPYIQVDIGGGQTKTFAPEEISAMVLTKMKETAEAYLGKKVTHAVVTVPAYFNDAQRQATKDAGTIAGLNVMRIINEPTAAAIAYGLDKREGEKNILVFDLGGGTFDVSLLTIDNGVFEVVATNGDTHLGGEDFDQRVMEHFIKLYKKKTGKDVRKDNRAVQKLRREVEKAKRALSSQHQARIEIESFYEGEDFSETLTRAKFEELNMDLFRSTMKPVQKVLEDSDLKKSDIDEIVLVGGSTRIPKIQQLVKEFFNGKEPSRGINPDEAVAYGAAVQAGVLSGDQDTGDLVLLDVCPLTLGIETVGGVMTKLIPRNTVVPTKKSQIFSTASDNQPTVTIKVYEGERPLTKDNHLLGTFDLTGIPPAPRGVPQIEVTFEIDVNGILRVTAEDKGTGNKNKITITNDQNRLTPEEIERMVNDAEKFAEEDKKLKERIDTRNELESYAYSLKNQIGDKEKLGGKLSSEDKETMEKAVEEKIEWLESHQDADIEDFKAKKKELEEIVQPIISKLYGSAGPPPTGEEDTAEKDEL
# UniProt P27986: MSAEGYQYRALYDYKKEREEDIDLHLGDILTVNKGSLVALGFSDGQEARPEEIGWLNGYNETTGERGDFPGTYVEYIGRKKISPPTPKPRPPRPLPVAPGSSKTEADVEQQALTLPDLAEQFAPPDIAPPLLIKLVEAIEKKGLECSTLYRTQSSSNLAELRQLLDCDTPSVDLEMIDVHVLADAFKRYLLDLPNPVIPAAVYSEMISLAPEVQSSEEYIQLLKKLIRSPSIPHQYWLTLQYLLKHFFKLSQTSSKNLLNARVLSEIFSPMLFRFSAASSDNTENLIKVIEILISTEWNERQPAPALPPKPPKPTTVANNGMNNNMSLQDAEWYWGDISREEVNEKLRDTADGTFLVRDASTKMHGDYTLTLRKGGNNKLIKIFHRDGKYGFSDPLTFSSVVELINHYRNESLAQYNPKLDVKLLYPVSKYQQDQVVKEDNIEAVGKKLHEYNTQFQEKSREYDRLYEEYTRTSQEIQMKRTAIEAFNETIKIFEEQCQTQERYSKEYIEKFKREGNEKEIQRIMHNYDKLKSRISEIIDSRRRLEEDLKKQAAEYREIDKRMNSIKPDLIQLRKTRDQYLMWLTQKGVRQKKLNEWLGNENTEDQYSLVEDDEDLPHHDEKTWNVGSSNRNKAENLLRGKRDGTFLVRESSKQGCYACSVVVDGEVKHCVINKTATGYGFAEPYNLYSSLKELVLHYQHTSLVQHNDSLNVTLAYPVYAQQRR
# Target: GRP78, ectopically expressed (pGRP78) (UniProt P11021)
# Experiment: co-IP; cell surface-biotinylated proteins from DRM fractions, isolated with streptavidin-agarose beads, then immunoprecipitated with anti-GRP78; control vector- or GRP78-transfected cells, vehicle or TSWU-BR4
substance,measurement,value
PI3K regulatory subunit p85α (from UniProt P27986 1-724),binding,binds
